Results on two molecules are retold here after article PMC12036661.

In assay [1] the target is T1, ephrin-B1 (human, wild type) (human) (UniProt P98172).
T1 sequence: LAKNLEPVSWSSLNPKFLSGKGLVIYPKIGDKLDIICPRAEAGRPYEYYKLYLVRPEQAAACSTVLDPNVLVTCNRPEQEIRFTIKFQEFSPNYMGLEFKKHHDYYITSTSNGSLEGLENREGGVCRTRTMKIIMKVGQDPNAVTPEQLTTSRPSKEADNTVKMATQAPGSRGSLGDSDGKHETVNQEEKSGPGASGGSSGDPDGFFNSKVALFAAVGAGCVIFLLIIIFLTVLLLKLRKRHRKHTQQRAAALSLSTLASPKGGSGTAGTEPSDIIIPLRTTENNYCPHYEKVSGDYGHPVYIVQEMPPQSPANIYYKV
The assay is described as follows: pull-down; 35S-sulfate-labelled HEK293T cells co-expressing ephrin-B1 and CD44V3–10; lysate precipitated with EphB2-Fc on protein G beads, released by boiling with 0.5% SDS, then re-precipitated with anti-CD44; SDS-PAGE and phosphorimager.

Assay [2] concerns the target T2, ephrin-B1S (human) (UniProt P98172).
T2 sequence: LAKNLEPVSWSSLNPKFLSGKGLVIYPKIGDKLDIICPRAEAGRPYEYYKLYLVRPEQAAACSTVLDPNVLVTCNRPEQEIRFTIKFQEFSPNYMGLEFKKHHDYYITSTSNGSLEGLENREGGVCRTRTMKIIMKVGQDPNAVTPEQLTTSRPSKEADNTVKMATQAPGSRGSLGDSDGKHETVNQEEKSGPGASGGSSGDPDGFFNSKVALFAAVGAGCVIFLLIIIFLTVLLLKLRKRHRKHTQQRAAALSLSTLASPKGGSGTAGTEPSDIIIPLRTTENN
As to the kind of experiment: co-IP; 0.5% NP40 lysates of co-transfected HEK293T cells precipitated with anti-CD44, anti-ephrin-B1, anti-FGFR1 or anti-FGFR4 (0.5–1 μg) and protein G beads for 2 h, 3 washes in cold PBS; Western blot. On the technique in general: A western blot detects proteins with antibodies after separation by electrophoresis.

In assay [3] the target is T2, ephrin-B1S (human). As to the kind of experiment: pull-down; the same EphB2-Fc precipitation from 0.5% NP40 lysates of co-transfected HEK293T cells; Western blot; pairs of ephrin-B1S (captured through EphB2-Fc) with a co-expressed protein.
In the next assay the target is CD44V3–10. The assay is described as follows: co-IP; 0.5% NP40 lysates of co-transfected HEK293T cells precipitated with anti-CD44, anti-ephrin-B1, anti-FGFR1 or anti-FGFR4 (0.5–1 μg) and protein G beads for 2 h, 3 washes in cold PBS; Western blot.

Results are given in words; binding and its absence hold for the method and conditions named. In cells and extracts the contact can be indirect. Binding calls can cover weak binding; strength is not graded here.

For CD44V3–10, the binding entry (in assay [1]; in the assay with ephrin-B1S (human) [2]; with ephrin-B1S (human) [3]) was “binds” each time.

B1: ephrin-B1S (domain or fragment, UniProt P98172 28-312)
chain: T2 sequence
Turning to B1, the binding entry with CD44V3–10 is reported as “binds”.
